Source: the supplement of paper PMC10663445
Counter-ions that a name gives are not always drawn. This is one part of the list. Single values are uncertain, as repeats are few or missing.

system: hsa-miR-132-3p; assay: miR-132-3p level in NGN2-iNs after compound treatment (TMM-normalised, ComBat batch-corrected) (batch-corrected normalised expression (arbitrary units)); higher = higher miR-132-3p expression; conditions: 10 µM; 24 h; human iPSC-derived NGN2 neurons (BR43)

Structure (SMILES) | miR-132-3p level in NGN2-iNs
CC(C(=O)O)c1ccc2c(c1)CC(=O)c1ccccc1S2 (configuration not stated) [Zaltoprofen] | -1.51
Oc1cc2c(cc1O)[C@@H]1c3ccc(O)c(O)c3OC[C@]1(O)C2 [Hematoxylin] | -0.85
Cc1nc(-c2ccc(OCC(C)C)c(C#N)c2)sc1C(=O)O [Febuxostat] | -0.302
Cc1nc(Nc2ncc(C(=O)Nc3c(C)cccc3Cl)s2)cc(N2CCN(CCO)CC2)n1 [Dasatinib] | 0.505
CCN1CCN(Cc2ccc(-c3cc4c(N[C@H](C)c5ccccc5)ncnc4[nH]3)cc2)CC1 | 0.667
CCOC(=O)c1c(CSc2ccccc2)n(C)c2cc(Br)c(O)c(CN(C)C)c12 [Arbidol HCl] | 0.625
CCCCN1CCCCC1C(=O)Nc1c(C)cccc1C (configuration not stated) [Bupivacaine HCl] | 1.06
C[C@H]1O[C@@H](Oc2c(-c3cc(O)c(O)c(O)c3)oc3cc(O)cc(O)c3c2=O)[C@@H](O)[C@@H](O)[C@@H]1O [Myricitrin] | -0.383
Cc1ccc2c(=O)c3cccc(CC(=O)O)c3oc2c1C [Vadimezan (ASA404)] | -0.71
Cc1cc(C)c(S(=O)(=O)n2cc(C)cc2C)c(C)c1 | -0.839
O=C(O)[C@H]1O[C@@H](Oc2cc3oc(-c4ccccc4)cc(=O)c3c(O)c2O)[C@H](O)[C@@H](O)[C@@H]1O [Baicalin] | -0.102
O=C1C(=O)c2ccccc2C(O)=C1C1CCC(c2ccc(Cl)cc2)CC1 (configuration not stated) [Atovaquone] | -1.11
c1cncc(CN2CCC(n3ncc4c(N5CCOCC5)nc(-c5ccc6[nH]ccc6c5)nc43)CC2)c1 | -0.811
O=c1[nH]cnc2c1ncn2[C@@H]1O[C@H](CO)[C@@H](O)[C@H]1O [Inosine] | 0.401
O=C1NC(=O)/C(=C/c2ccc3c(c2)OC(F)(F)O3)S1 | 0.691
Nc1ccc(C(=O)Nc2cccc(-c3nc(N4CCOCC4)c4oc5ncccc5c4n3)c2)cn1 | -0.0515
COc1cc(C(C)=O)ccc1O [Apocynin (NSC 2146)] | 0.771
O=C(CCCCCCC(=O)Nc1ccc([C@H]2O[C@@H](CSc3nc(-c4ccccc4)c(-c4ccccc4)o3)C[C@@H](c3ccc(CO)cc3)O2)cc1)NO [Tubacin] | 0.00216
CN(Cc1cnc2nc(N)nc(N)c2n1)c1ccc(C(=O)N[C@@H](CCC(=O)O)C(=O)O)cc1 [Methotrexate] | -2.84
CCOC(=O)c1ccc(N)cc1 [Benzocaine] | 0.695
CCN(CC)CCOC(=O)C(c1ccccc1)c1ccccc1 [Adiphenine HCl] | 1.2
COc1cc(NC(C)CCCN)c2ncccc2c1 (configuration not stated) [Primaquine Diphosphate] | -0.0699

Part of the list above, field by field:
O=C(O)[C@H]1O[C@@H](Oc2cc3oc(-c4ccccc4)cc(=O)c3c(O)c2O)[C@H](O)[C@@H](O)[C@@H]1O [Baicalin]
  miR-132-3p level in NGN2-iNs: -0.102
O=C1C(=O)c2ccccc2C(O)=C1C1CCC(c2ccc(Cl)cc2)CC1 (configuration not stated) [Atovaquone]
  miR-132-3p level in NGN2-iNs: -1.11
